Measurements published in paper PMC10601554 (Protein Science : A Publication of the Protein Society, 2023).
These are yes or no findings as the source states them, for the method shown. For some assays here: Sequences can lack the tags named with a protein.

B1: RBP‐TruncII_(N‐Strep) (second-generation C-terminal half of T. maritima RBP, residues 156–310) (domain or fragment, UniProt Q9X053 156-310)
chain: DAKEIPYAELLGILSAQPTWDRSNGFHSVVDQYPEFKMVAQQSAEFDRDTAYKVTEQILQAHPEIKAIWCGNDAMALGAMKACEAAGRTDIYIFGFDGAEDVINAIKEGKQIVATIMQFPKLMARLAVEWADQYLRGERSFPEIVPVTVELVTRE
B2: RBP‐TruncII_(N‐His) (second-generation C-terminal half of T. maritima RBP, residues 156–310, His6 tag) (domain or fragment, UniProt Q9X053 156-310)
chain: B1 chain

Assays:
[1] = biological target: RBP‐TruncII_(N‐Strep) (second-generation C-terminal half of T. maritima RBP, residues 156–310) (Thermotoga maritima) (UniProt Q9X053); assay: SEC-MALS; single purified proteins, and RBP‐N and RBP‐Trunc purified one by one and mixed in an equimolar ratio; Superdex 75 Increase 10/300 GL, 10 mM sodium phosphate, 50 mM sodium chloride, 0.02% sodium azide, pH 7.8, room temperature, 0.8 mL min^-1; both purified
[2] = biological target: RBP‐TruncII_(N‐His) (second-generation C-terminal half of T. maritima RBP, residues 156–310, His6 tag) (Thermotoga maritima) (UniProt Q9X053); assay: as above

Binder | binding [1] | binding [2]
B1 | no binding | –
B2 | – | no binding
